No constants are given. Whether binding was seen depends on the method and setting. Binding seen in cells or lysates may run through a third protein. These calls come from enrichment with a bait or labelling near it, and not all partners need be listed.
Key:
[1] = molecular target: DNAAF9 (human Shulin), endogenous in human airway epithelial cells (human (endogenous in HAECs)) (UniProt Q5TEA3); assay: affinity purification with mass spectrometry
[2] = molecular target: Tetrahymena thermophila Arl3 Q70L (GTP mimicking variant) (Tetrahymena thermophila) (UniProt Q229S0); assay: affinity purification with mass spectrometry

The chains behind the UniProt entries cited, without tags or fusion partners.
UniProt Q5TEA3: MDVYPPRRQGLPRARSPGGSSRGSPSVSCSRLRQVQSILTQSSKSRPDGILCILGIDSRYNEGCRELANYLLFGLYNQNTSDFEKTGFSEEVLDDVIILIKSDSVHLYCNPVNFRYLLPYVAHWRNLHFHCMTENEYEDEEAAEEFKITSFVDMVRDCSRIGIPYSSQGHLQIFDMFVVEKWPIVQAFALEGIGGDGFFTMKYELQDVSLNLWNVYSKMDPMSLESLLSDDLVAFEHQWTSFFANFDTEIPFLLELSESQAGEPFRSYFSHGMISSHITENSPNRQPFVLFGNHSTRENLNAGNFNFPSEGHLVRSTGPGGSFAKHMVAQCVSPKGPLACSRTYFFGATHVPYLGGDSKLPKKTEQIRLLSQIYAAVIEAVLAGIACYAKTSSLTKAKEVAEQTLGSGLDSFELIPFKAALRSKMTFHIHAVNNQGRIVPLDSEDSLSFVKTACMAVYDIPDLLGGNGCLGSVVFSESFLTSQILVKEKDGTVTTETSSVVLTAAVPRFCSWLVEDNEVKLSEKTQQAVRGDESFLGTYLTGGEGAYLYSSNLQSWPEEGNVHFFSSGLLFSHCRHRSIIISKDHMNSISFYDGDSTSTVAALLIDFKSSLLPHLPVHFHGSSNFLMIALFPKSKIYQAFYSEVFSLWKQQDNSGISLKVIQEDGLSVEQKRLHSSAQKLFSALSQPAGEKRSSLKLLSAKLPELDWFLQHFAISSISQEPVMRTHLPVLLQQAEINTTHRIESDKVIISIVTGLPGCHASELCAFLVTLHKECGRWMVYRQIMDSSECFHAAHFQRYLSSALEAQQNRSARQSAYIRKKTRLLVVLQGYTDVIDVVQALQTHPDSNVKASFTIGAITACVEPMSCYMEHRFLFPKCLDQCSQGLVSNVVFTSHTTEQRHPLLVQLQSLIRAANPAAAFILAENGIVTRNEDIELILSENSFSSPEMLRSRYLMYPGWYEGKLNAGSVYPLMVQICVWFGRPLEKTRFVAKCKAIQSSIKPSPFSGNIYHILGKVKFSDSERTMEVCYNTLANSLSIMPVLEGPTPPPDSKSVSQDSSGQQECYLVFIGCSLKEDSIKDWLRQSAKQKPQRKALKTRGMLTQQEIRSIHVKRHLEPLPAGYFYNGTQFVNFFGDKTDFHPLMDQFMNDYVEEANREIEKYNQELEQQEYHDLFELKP

B1: LC3/NME9 (protein, UniProt Q86XW9 1-330)
chain: MGSRKKEIALQVNISTQELWEEMLSSKGLTVVDVYQGWCGPCKPVVSLFQKMRIEVGLDLLHFALAEADRLDVLEKYRGKCEPTFLFYAGGELVAVVRGANAPLLQKTILDQLEAEKKVLAEGRERKVIKDEALSDEDECVSHGKNNGEDEDMVSSERTCTLAIIKPDAVAHGKTDEIIMKIQEAGFEILTNEERTMTEAEVRLFYQHKAGEEAFEKLVHHMCSGPSHLLILTRTEGFEDVVTTWRTVMGPRDPNVARREQPESLRAQYGTEMPFNAVHGSRDREDADRELALLFPSLKFSDKDTEAPQGGEAEATAGPTEALCFPEDVD
B1 was tested, and the binding [1] was “binds”.

B2: Shulin, endogenous in Tetrahymena cells undergoing ciliary regeneration (protein, UniProt Q22YU3 1-1200)
chain: MFNFFSSANINQNIPKYSVNDFVFRLKKIEKIVVKEGLDGFLLINGVDSRENTEYVKLTNWLFLGNSGLEIEENEYLNQIYSDMIVLIKKGTTHIFIDPEALNSLQTLIYSIPNVDVFCPTEKQYEDKDEMELLKMAFFLRVMKPTKKVGILLGQKDKGKINSIEKWPLIQSYGLEELGVGFFSMNHEVVDLTLRLNAVYKNYDKFFVSKLIYVVAKRLTGHFNSAAGQLGDMKMHKRNLATESQLTEIFRDTYEIEEISKWVQIRGVNAALPKPRVLFGKNTSADCSKEPSVAPLKDLKYSETFHSFHATFETFDLRTCLRAARTYFLAKGVKEERNLITLNDDEGVPQGYELNIDENQQYKDQDFLANLYLSIIIGFNEVMQLITKDYKNMTEEFIQDYIFQKVSKVYAGFQIPESEITLDKIQIILKAYNSFGEEVKIDFKDTISFKLTPYFFMVRIEQKNIKSQILNNTVLGSLVFAESFILQEGCYLLLTKEIPYFDLWNCQNDYSEKIEKMKKRILWEPLGKQISDELPKNRIFVQTGRKSNYGFDIPIMQASYYMHELGLRIETQRLGWFILFFKEMKEIQITQKMNHTWLIFKVDSNITFNSISKDTIALEFTGDALEQSFFKIKNYFEENQIKYEYQVDIPAIFQESQIAKKQILNQQSQGQKLITMNSIQNEQFFISYIESKQLMILNQMKDLKLSAYKNLYEQMQISQAITPVENHIGVILVNGSYCSGKRKFAENLIRFGSDNNLRLHLYKFDLNEMSELTEKSYLSGLLKFASEKKIQNTDVIVASVPHFINTKILIDYFSKSEKISNAFYIRTIATKININNIYSNFNKNPVNNVFTYGVEGYSQFLLLDTYNNYDADVNALNKTLSGVLPGAKIYKIMNNILNPALAKDILTSITFISEQNNLNRLKYSVQYDLLTSNGPSSVVFIPFKLPILREKIRDLIYKKILQNGNQTLVDTIEAEQKIAEFKELNKNSKDPLMIEIIKLKEKIEIQNAQTSDQAIKIDYVKGILRYDSKLKEGLEEITITPNYFIERTVKGVDAKEFTEELNGVSFKNVKYTGITNSIINDMGFVFAGKNLNKEKLLELLYKLVKPLNKQKLRQRKDLTEEEIVDIQFRNRGEGLENGEFYDGQFWRNIQGLILPHHPKKDEFIEEYLKQEEVRINQINEQLQQEWETWKQVYDKIHLDK
B2 was tested, and the binding [2] was “binds”.
